{
  "source": "patent US8658648B2",
  "about": "“Modified chloroquines with single ring moiety or fused ring moiety” (DesignMedix, Inc., priority 2008, dated 2014)",
  "origin": "cited, not measured here",
  "system": "P. falciparum strain TM91C235",
  "details": "cited from earlier work",
  "note": "At least one structure is not confirmed: it was looked up by name or label, or the drawing left a doubt. Note: key: S = sensitive; R = resistant; S/R = intermediate level of resistance.",
  "data": [
    {"smiles": "CCc1nc(N)nc(N)c1-c1ccc(Cl)cc1", "note": "[Pyrimethamine]", "values": [
      {"measurement": "Drug susceptibility of P. falciparum strain TM91C235", "value": "R"}
    ]}
  ]
}
